Data published in US20260308278A1, “ANTIBODY THAT BINDS TO C3bBb” (Hoffmann-La Roche Inc., priority 2023, published 2026).

Test system: human C3bBb complex
Test: Stability (decay) of C3bBb complexes with different Bb subunits by Bio Layer Interferometry
Format: binding

| Substance | prevalence of main species (Mg2+, double exponential fit) [%] | prevalence of main species (Ni2+, single exponential fit) [%] |
| --- | --- | --- |
| FB (D279G): FB with a D279G mutation is indicated in SEQ ID NO: 492 | 97 | 100 |
| wt FB: Unmutated FB is indicated in SEQ ID NO: 491 | 93 | 100 |
